The other results are listed elsewhere or left out.

The assay addresses T1, OsSMF1 (Oryza sativa, UniProt Q6ZLB0 1-436).
T1 sequence: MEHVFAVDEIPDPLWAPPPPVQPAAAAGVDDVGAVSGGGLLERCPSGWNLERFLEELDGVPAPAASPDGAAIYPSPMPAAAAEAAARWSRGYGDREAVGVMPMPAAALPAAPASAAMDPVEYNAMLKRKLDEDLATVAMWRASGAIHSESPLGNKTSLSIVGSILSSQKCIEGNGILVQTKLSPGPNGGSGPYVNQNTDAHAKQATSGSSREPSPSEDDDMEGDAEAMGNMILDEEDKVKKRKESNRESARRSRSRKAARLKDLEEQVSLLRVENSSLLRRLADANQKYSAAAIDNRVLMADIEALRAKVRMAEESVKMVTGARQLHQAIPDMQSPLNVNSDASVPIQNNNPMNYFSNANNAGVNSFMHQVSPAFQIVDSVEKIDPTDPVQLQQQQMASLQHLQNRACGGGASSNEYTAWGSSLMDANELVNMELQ
Nature of the assay: protein-binding microarray (RPBM); PBS, 2% BSA, 51.3 ng/ul salmon testes DNA, 50 uM zinc acetate, 200 nM TF, 25 C, 1 h; high values mean tight binding. Particulars: protein: recombinant; tags: N-terminal polyhistidine and DsRed monomer fusion (pET32a); chain copies: 2; label: CyDye5-dUTP incorporated in the synthesized complementary strand; 3' TTTTT single-stranded linker to array surface; dsDNA, one strand shown. An outline of the steps: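 Polyhistidine-tagged DsRed fusions of transcription factors, joined at the N-terminus, were expressed in E. coli BL21-CodonPlus and isolated on Ni–NTA. They were incubated at 200 nM for 1 h at 25 °C on a custom Agilent array, double-stranded and BSA-blocked, in PBS with 2% BSA, salmon testes DNA and 50 µM zinc acetate. The binding signal is per-feature fluorescence intensity (arbitrary units) read on an Axon 4000B scanner after washing.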
As for “GGGGAAGTACGGCGTGGAGCTGGACGCCGTCGCCCTCAACCGGAGTCACCTAGTGCAG”, the binding signal is 33900 fluorescence intensity (a.u.). To “CTCGCATTCCCTCGCCTGGGAAGAGCACGTGGCGAGCGCACGGAGTCACCTAGTGCAG” belongs 3310 fluorescence intensity (a.u.); to “GCGATCCAAAGATATCCGAGGTGACGCCGTGTCATCCCTACGGAGTCACCTAGTGCAG”, 5610 fluorescence intensity (a.u.); to “GGTGTTGTGGTGAACGGGTCTATATTACGATGAGAGGCCCCGGAGTCACCTAGTGCAG”, 3880 fluorescence intensity (a.u.). To “ACATCTCATAATTAACGTGCGCGTCATCAATAGCATTAATCGGAGTCACCTAGTGCAG” belongs 3660 fluorescence intensity (a.u.); to “GATGTTAATGAATCTAGGCACACATATATATCTAGATTCACGGAGTCACCTAGTGCAG”, 4900 fluorescence intensity (a.u.); to “GCGCGCGCCACCGCACCCGCGACGCCGACGTGTTCATGACCGGAGTCACCTAGTGCAG”, 5890 fluorescence intensity (a.u.). To “TGAGTTGAGGACTTGTCACCTCGTCGTCATAGTCGTGGAGCGGAGTCACCTAGTGCAG” belongs 5830 fluorescence intensity (a.u.); to “GACCTGTCTACCGCCGCCCTAGTGACTAATGTTGACCACACGGAGTCACCTAGTGCAG”, 3580 fluorescence intensity (a.u.). Consider “AATCCATTTGATGATTTGAGTAGTTGTCATAGCACAGGGCCGGAGTCACCTAGTGCAG”, for which the binding signal was 36000 fluorescence intensity (a.u.). To “AAGCGGTCAAGACGCAACACACGTCAGGCCTCGAGACCAACGGAGTCACCTAGTGCAG” belongs 5410 fluorescence intensity (a.u.). To “AATGATGACAAGAGACCATTCTACGTCAGCAAAGGAATTACGGAGTCACCTAGTGCAG” belongs 7420 fluorescence intensity (a.u.); to “CGCTTCCCTTGATATGACGCACACGATTTTACTGCTGGCCCGGAGTCACCTAGTGCAG”, 4570 fluorescence intensity (a.u.). To “TCATGTGCAGTTTTCCGAACTACTAAACGATATATTATTTCGGAGTCACCTAGTGCAG” belongs 3460 fluorescence intensity (a.u.). In the case of “GCCGGGGCCGGGGCGGGCGTGGGCCCCTTCGCTCCGATGGCGGAGTCACCTAGTGCAG”, the binding signal was 4096 fluorescence intensity (a.u.).

“CGCTAAAGAAGACGCTAATTGCGATCGAGTTAACCCGGTGCGGAGTCACCTAGTGCAG”: the binding signal is 3360 fluorescence intensity (a.u.). To “GCCTTCCCTTCCTTCCTCTGCCAATGGCCGCGCGTCAGCCCGGAGTCACCTAGTGCAG” belongs 3390 fluorescence intensity (a.u.); to “ACCCTCTTCTTCGCCCGCCGCCTGCGTGTCGCGCCGATCTCGGAGTCACCTAGTGCAG”, 4690 fluorescence intensity (a.u.). To “CCATCTTCATCTCCATATCTTCTCCTCCTCGCGTCGGCAGCGGAGTCACCTAGTGCAG” belongs 3270 fluorescence intensity (a.u.). To “TAGTTGATGAATACTCCCTCCGTTTCATAATGTAAGTCATCGGAGTCACCTAGTGCAG” belongs 3260 fluorescence intensity (a.u.); to “AGCTTTAGTTGTCGCCGACCAGATTGACCACCAGTTCCAACGGAGTCACCTAGTGCAG”, 3150 fluorescence intensity (a.u.); to “GTTCCCTCCACTACTAATTACACGTAGGCAGTACGATCACCGGAGTCACCTAGTGCAG”, 20800 fluorescence intensity (a.u.). For “AATTACATGCAAGTTACAGTGTAATTACACTACGATTGTACGGAGTCACCTAGTGCAG”, the binding signal was 3280 fluorescence intensity (a.u.). For “CAGAAACTGGTTGCCATCTTGGATGCCTGCGTGTGAATTGCGGAGTCACCTAGTGCAG”, the binding signal is 3800 fluorescence intensity (a.u.). As to “TACGAACCCAATCCTAGTCACCACGATCCACTCCAAAGCGCGGAGTCACCTAGTGCAG”, the binding signal was 4120 fluorescence intensity (a.u.).

Take “GATGGGTGGGGATGAGGCCGGGCGGCCAATCCAACTTGAGCGGAGTCACCTAGTGCAG”: the binding signal was 3940 fluorescence intensity (a.u.). To “ATATAGATCATCATCAAGACTACGTATTATTCACTATTCACGGAGTCACCTAGTGCAG” belongs 3160 fluorescence intensity (a.u.). To “CGCGCGCGTCGGCGTTCCACCCGGACGTGTCCCGCGCGGTCGGAGTCACCTAGTGCAG” belongs 4200 fluorescence intensity (a.u.). To “ATGCCATGTGTATGACATGTGGCTTTGGTGATGATTTCCCCGGAGTCACCTAGTGCAG” belongs 4870 fluorescence intensity (a.u.); to “AATAGGTGTGAAATCAAAATCCCCTTCTAATCTTCTTGTGCGGAGTCACCTAGTGCAG”, 14600 fluorescence intensity (a.u.). On to “CGTGGTCTTGCCTATGTGGCATGCCACGTGGACGATGACACGGAGTCACCTAGTGCAG”, for which the binding signal was 25600 fluorescence intensity (a.u.). On to “AGAAGAAGAGGAAGCTGTGGGTCAGGTGGGTTTCCGCCCACGGAGTCACCTAGTGCAG”, for which the binding signal is 41300 fluorescence intensity (a.u.). Regarding “TGCAATGTACTTTGCATGCGTCACACGCCCTTGTCAAGAACGGAGTCACCTAGTGCAG”, the binding signal is 6550 fluorescence intensity (a.u.).

As to “CATTTGCCTTAGTCCTTGCGCGTGCTTCATTGATTTCTGCCGGAGTCACCTAGTGCAG”, the binding signal was 3480 fluorescence intensity (a.u.). To “CTTTCCAACGTTGGTGAATCATGATCGGTCAATTTGCAACCGGAGTCACCTAGTGCAG” belongs 4610 fluorescence intensity (a.u.).

Take “GAGTAGAGGTGGGAGGAAGCGGTGGTGTGGTGGGGTGGGGCGGAGTCACCTAGTGCAG”: the binding signal is 8310 fluorescence intensity (a.u.).

On to “CCAGATCGACCCCGACGTGGCTGTGTGTCATCCTATCCCACGGAGTCACCTAGTGCAG”, for which the binding signal is 7670 fluorescence intensity (a.u.). To “TCGGTAGAGGTGGAGTAGAGTCTGACATATCCGGTATATACGGAGTCACCTAGTGCAG” belongs 3680 fluorescence intensity (a.u.); to “GGCGTGCCGTTACTGGGTCCAACCGTCCAAGCACACACTACGGAGTCACCTAGTGCAG”, 3490 fluorescence intensity (a.u.); to “TTCCTATTTAACTCCACATATTTCCTTAATACACGTGTCTCGGAGTCACCTAGTGCAG”, 8090 fluorescence intensity (a.u.). To “GATCGAAGCCACGCAACGGCACACCAACCCCGACACAGCACGGAGTCACCTAGTGCAG” belongs 3340 fluorescence intensity (a.u.). Regarding “GATAGGAGGGGATAACTTGTTTCATATTTTGTGCCGGGTTCGGAGTCACCTAGTGCAG”, the binding signal is 3710 fluorescence intensity (a.u.).
